This passage reports cell count results from PubChem BioAssay AID463183 (Sanford-Burnham Center for Chemical Genomics, 2010).

The other results are listed elsewhere or left out. These are further read-outs of the screen, such as a control signal, another cell line or another target. No call is given for them. Compounds called inactive in the main read-out are mostly missing here.

A short description of the test: hepatocyte lipid droplet accumulation inhibitors, confirmation, imaging, AML12 mouse hepatocytes, single concentration, high-content (AID 463183).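 Further: cells counted after overnight compound exposure.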 To be noted: BODIPY lipid droplet imaging, measured here: cell count, cytotoxicity, at 5.2 µM, droplets induced with 100 µM oleic acid.
`CCOc1ccc(CCNC(=O)CCC(=O)N2CCOc3ccccc32)cc1OCC` yielded a cell count of 1580 cells.

Turning to `N/C(=N\c1nc2c(c(=O)[nH]1)CCCC2)Nc1ccc(Oc2ccccc2)cc1`, the cell count was determined as 1580 cells. For `Cc1cccc(NC(=O)c2cccc(OC(=S)N3CCOCC3)c2)c1`, the cell count turned out to be 1560 cells. The figure for `CCOc1ccc(CCNC(=O)CSCc2ccc(C)cc2)cc1OCC` is 1580 cells; for `CCc1cc(C(=O)N2CCc3c([nH]c4ccccc34)C2c2ccc(OC)cc2F)no1` (centres undefined) it is 1570 cells; for `COc1ccc(NC(=O)CSc2nc3ccccc3nc2N2CCCC2)cc1Cl` it is 1610 cells. The figure for `CCOc1ccc(CCNC(=O)CCC(=O)N2CCOc3ccc(C)cc32)cc1OCC` is 1640 cells; for `CC(C)(C)c1ccc(-c2nnc(SCC(=O)Nc3sc4c(c3C#N)CCCC4)o2)cc1` it is 1630 cells. The figure for `CCOC(=O)c1c(C)[nH]c(N=Nc2ccccc2Cl)c1C` is 1590 cells; for `CCCc1nc2ccccc2c(C(=O)OC(C)C(=O)NCc2ccc3c(c2)OCO3)c1CC` (centres undefined) it is 1630 cells. The compound `CCCCSCCCNC(=O)c1ccc2c(c1)N(CC)C(=O)c1ccccc1S2=O` (centres undefined) yielded a cell count of 1560 cells. The figure for `CCOc1ccc(C(=O)OCC(=O)Nc2ccc(SC(F)F)cc2)cc1OCC` is 1630 cells; for `COc1ccc2c(c1)-c1c(ssc1=S)C(C)(C)N2S(=O)(=O)c1ccc(C)cc1` it is 1660 cells. The figure for `CCOc1cc(Br)c(CC(=O)NC2CCCCCC2)cc1OCC` is 1540 cells. `COc1ccc2nc(N=Nc3c(O)ccc4ccccc34)sc2c1` came in with a cell count of 1480 cells. With `CCOc1ccc(CCNC(=O)C(C)n2nc(C)n3c(cc4occc43)c2=O)cc1OCC` (centres undefined), the cell count was 1530 cells. `CCCCOc1ccc(/C=C/C(=O)OCC(=O)c2c(N)n(C)c(=O)n(C)c2=O)cc1OCC` returned a cell count of 1640 cells. The figure for `C=CCOc1ccc(/C=N/NC(=O)c2cc3c(OC)cc(OC)cc3[nH]2)cc1` is 1760 cells; for `CCCc1cc(N2CCCC2)n2nc(C)c(-c3ccccc3)c2n1` it is 1470 cells; for `COC(=O)C1=C(C(=O)OC)SC(=C2C(=S)C(C)(C)N(C(=O)C(C)C)c3ccccc32)S1` it is 1590 cells. On to `CCOc1ccc(CCNC(=O)c2nnc(Cc3ccc(F)cc3)o2)cc1OCC`, for which the cell count worked out at 1610 cells. As to `O=C(Nc1cccc(Br)c1)c1cccc(OC(=S)N2CCOCC2)c1`, the cell count was determined as 1680 cells. The figure for `Cc1ccc(NC(=O)CSc2nc3ccccc3nc2N2CCCC2)cc1` is 1540 cells; for `CCOc1ccc(CCNC(=O)CCS(=O)(=O)c2ccc(OC)cc2)cc1OCC` it is 1620 cells. The figure for `COc1ccc(-c2nc(NC(=O)Cn3ccc(C(F)(F)F)n3)sc2C)cc1` is 1550 cells; for `COC(=O)[C@H](Cc1c[nH]c2ccccc12)NC(=O)CCCc1c[nH]c2ccccc12` it is 1590 cells; for `CCOc1ccc(CCNC(=O)COC(=O)/C=C/c2ccc(C)o2)cc1OCC` it is 1660 cells.

As for `COc1ccccc1NS(=O)(=O)c1ccc(N/N=C/c2c(C)nn(-c3ccccc3)c2N2CCCC2)c([N+](=O)[O-])c1`, the cell count came to 1540 cells. The figure for `CS(=O)(=O)N(CC(=O)Nc1ccccc1Br)Cc1ccccc1` is 1670 cells; for `O=[N+]([O-])c1ccccc1N/N=C\c1ccccc1Cl` it is 1600 cells. In the case of `CC(C)Oc1ccc(C(=O)Nc2ccc(N3CCN(C(=O)c4ccco4)CC3)cc2)cc1`, the cell count is 1680 cells. The figure for `O=C1CC(/C=C/c2ccccc2)(C(=O)NC2CCCC2)N1c1ccc(S(=O)(=O)N2CCCC2)cc1` (centres undefined) is 1630 cells; for `COC(=O)c1c(N2C(=O)[C@H]3[C@@H](C2=O)[C@]2(C(=O)Nc4c(C)cc(C)cc42)N2CCC[C@@H]32)sc(C)c1C` it is 1580 cells. The figure for `COc1ccc(C2(c3ccc(OC)cc3)NC(=O)N(CC(=O)Nc3ccc(OC)c(OC)c3)C2=O)cc1` is 1690 cells; for `CCOC(=O)CSc1c(-c2cccs2)[nH]c2ccccc12` it is 1640 cells. The figure for `CCOC(=O)c1ccc(S(=O)(=O)Nc2ccc(N3CCOCC3)cc2)cc1` is 1620 cells; for `CCC(C(=O)NCc1cccc(C)c1)n1nc(C)c2c(C)n(-c3ccccc3)nc2c1=O` (centres undefined) it is 1570 cells. In turn, `CCc1ccc(NC(=O)C(C)OC(=O)c2ccc(N3CCCC3)c([N+](=O)[O-])c2)cc1` (centres undefined) gave a cell count of 1630 cells. In the case of `CC(=O)c1cccc(N=Nc2c(-c3ccccc3)[nH]n(-c3ccccc3)c2=O)c1`, the cell count was 1680 cells.
